Assay results

The results are deposited in PubChem (AID1159506; NCATS, 2015).

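Luminescence from an EWS-FLI1 target-promoter (NR0B1) reporter, set against a CMV-promoter reporter, two days after silencing single genes in TC32 Ewing sarcoma cells.
Each siRNA was applied at 20 nM.
A z-score of the log NR0B1-over-CMV signal, less the median of siRNAs with the same seed; more negative means a stronger specific loss of the NR0B1 reporter.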

The strongest results of the screen are mostly left out here.
Sequences are the guide (antisense) strand, without overhang.

UCAUACUUGACCGUGAGCG against OCSTAMP gave seed-corrected z-score -1.482.
UUGAUAGUCAUGUCUGGGC against PALM2-AKAP2 gave seed-corrected z-score -0.7782.
UCCAAAACCACUUCAUGUC against TRIM55 gave seed-corrected z-score -0.6063.
UCCGGUUCAUAAUUGUACU against OR4K1 gave seed-corrected z-score 0.6435.
UAUAGAAAUUGGACGAGAC against HOXA11 gave seed-corrected z-score 0.02928.
UUCAUUACCAUACUGAAUG against PUM3 gave seed-corrected z-score 0.6818.
AUCAGAAUCUGAGUAGAGC against HAP1 gave seed-corrected z-score 1.701.
UCACGGAUAAACCACAUGG against ZDHHC3 gave seed-corrected z-score -0.5765.
UGCGUUUACUCCGUUUAGU against CCDC140 gave seed-corrected z-score -0.1857.
UUACAGCCGAGCACUGACA against AIRE gave seed-corrected z-score -0.2427.
UUUGCAUUAAUGAUGUCGC against ASB7 gave seed-corrected z-score -0.6987.
AAAAGGCUCCUGUUGUUUA against RFNG gave seed-corrected z-score 0.5758.
UCUUGUAUAUCACUGAUGC against LOC730159 gave seed-corrected z-score 0.4197.
UCAUUGUGCACCCUUGACC against SPATA6 gave seed-corrected z-score 0.5093.
UUCCUGAUCGGGAGACUUG against RPS2P8 gave seed-corrected z-score -0.1031.
UAAUGAUUCACCACCACUA against TEX261 gave seed-corrected z-score 2.02.
UGUGGUUGCAGUACCUUGC against RNASE12 gave seed-corrected z-score -0.7368.
UAACAUCUGAUUUAACACU against PRDM9 gave seed-corrected z-score -0.6823.
UUUCAGUAUGGUGUUCUUG against IDH2 gave seed-corrected z-score 0.4234.
UACACUUGAGCUUCUUUUC against ZNF410 gave seed-corrected z-score 0.5784.
UGGGUUUAGAGUUACAGCC against DCLRE1A gave seed-corrected z-score 0.09854.
UUGAGGACCAGUGGGCUGU against MYC gave seed-corrected z-score -1.021.
AAAGCAUCCACAUUUUGGG against SIRT4 gave seed-corrected z-score -1.206.
UAAUGGUCCCUACUCUGCC against C22orf15 gave seed-corrected z-score -0.4132.
AAUCAUUUAAGGUCUUGUC against ZBTB7A gave seed-corrected z-score 0.1444.
UCGCUGUAUAGGCUCAUCU against TRIM9 gave seed-corrected z-score 1.014.
UUGAUAAAUCUGUAGCAGC against CCL7 gave seed-corrected z-score -0.2525.
UUCUCUUCCACGAGUUGCU against CPLX3 gave seed-corrected z-score -0.4409.
UCAGUUCAAAUGAUUCACC against RCL1 gave seed-corrected z-score 0.887.
UUCACGGCCAGGUUCCUCU against D2HGDH gave seed-corrected z-score -0.193.
UAGAGAACAAGGUCUGGGC against CHRNA1 gave seed-corrected z-score -0.4051.
UCAUGGAAAGUGCUGAAGC against VWCE gave seed-corrected z-score 0.09669.
UAUGCGACACGAAAUAGUU against STAP2 gave seed-corrected z-score 0.3313.
AAUUUUACAACACUUGAGG against LY6K gave seed-corrected z-score 1.589.
UGUCAGUUGACCAACAAGC against CLRN2 gave seed-corrected z-score -0.5928.
UAAGUAAGUAUACAUGAGG against HSD17B2 gave seed-corrected z-score 0.2222.
AUUGCUUCCAUGGAGAUUU against HLA-DQA2 gave seed-corrected z-score -1.16.
UCUCUUUGGACUACUGUGG against JAKMIP1 gave seed-corrected z-score -1.444.
AAAAGUCUCUUCUUUACGC against CD83 gave seed-corrected z-score 0.3696.
UUCACUGAAGGGACCUUCC against FAM73B gave seed-corrected z-score -0.9294.
UUCCGAACAAGCAUAACUG against SZT2 gave seed-corrected z-score -0.2453.
UUCUUUUCAAAAUUCGGGC against XRCC3 gave seed-corrected z-score 0.002065.
ACAGGGAUCAGAGACUCGG against TMEM102 gave seed-corrected z-score 2.173.
UGCCUAGUAGGAUAUCAUC against CD302 gave seed-corrected z-score -0.106.
UUUUCUGCUUGAGAGGUGC against IL1B gave seed-corrected z-score 0.826.

The first 4 entries again:

| siRNA | target gene | seed-corrected z-score |
|---|---|---|
| `UCAUACUUGACCGUGAGCG` | OCSTAMP | -1.482 |
| `UUGAUAGUCAUGUCUGGGC` | PALM2-AKAP2 | -0.7782 |
| `UCCAAAACCACUUCAUGUC` | TRIM55 | -0.6063 |
| `UCCGGUUCAUAAUUGUACU` | OR4K1 | 0.6435 |